# Test results from patent US8217049B2, “Use of type V phosphodiesterase inhibitors in the treatment of exercise induced pulmonary hemorrhage in the equine” (ANOxA Corp., priority 2006, dated 2012).
# Several values for one entry are separate records, joined by “and”; a condition that tells them apart may be missing. Equal entries are not always repeated. At least one structure is not confirmed: it was looked up by name or label, or the drawing left a doubt.
# System: exercise induced pulmonary hemorrhage (EIPH); blood in the trachea
# Experiment: Endoscopic EIPH scoring (Pascoe et al. 1985) after maximum exercise, placebo-controlled crossover
# Format: in vivo
# Details: 10 μg/kg of E4021 prior to maximum exercise (>1,000 meters); videoendoscopy about 60 to 90 minutes after exercise; one value per individual horse (Horse 1-8) with previous EIPH; sesquihydrate
# Description: Eight horses with previous evidence of EIPH were enrolled in the study. The candidate horses served as their own control and a predetermined rest period (no maximum exercise events) of one week was adhered to prior to initiation of the protocol. On initiation of the trial the subject horse received, prior to maximum exercise, either a dose of 10 μg/kg of weight of E4021 or a placebo. The eight horses were exercised in training/mock racing conditions at maximum intensity for greater than 1,000 meters followed by endoscopic exam/scoring about 60 to 90 minutes after the exercise event. Following exercise, the horses were examined with videoendoscopy for evidence of blood in the trachea about 60 minutes to 90 minutes after maximum exercise. The endoscope was passed to the level of the bifurcation of the trachea (carina) with images recorded on videotape.
# An objective scoring system (Pascoe et al. 1985) was used to indicate the presence or absence of EIPH, as well as its severity, if present. […] Scoring was done by the veterinarian conducting the examination, then later by another individual using the recorded examination. […]
# The E4021 was administered from vials containing 50 mg of E4021/30 ml. […] The Pl score was after placebo intervention and the post Tx Score was recorded after administration of E4021. […]
smiles,measurement,value
O.O.O.O=C([O-])C1CCN(c2nc(NCc3ccc4c(c3)OCO4)c3cc(Cl)ccc3n2)CC1.O=C([O-])C1CCN(c2nc(NCc3ccc4c(c3)OCO4)c3cc(Cl)ccc3n2)CC1.[Na+].[Na+] [E4021],Post Tx (EIPH endoscopic score recorded after administration of E4021),2+ and 3+
